Data reported in publication PMC4726551.
No constants are given. Whether binding was seen depends on the method and setting. Some entries that bind do so weakly or less than the wild type.

Target: T1, NTAP-Zfrp8 (UAS-TAP-Zfrp8 expressed in Drosophila ovaries) (Drosophila) (UniProt Q9W1A3)
T1 sequence: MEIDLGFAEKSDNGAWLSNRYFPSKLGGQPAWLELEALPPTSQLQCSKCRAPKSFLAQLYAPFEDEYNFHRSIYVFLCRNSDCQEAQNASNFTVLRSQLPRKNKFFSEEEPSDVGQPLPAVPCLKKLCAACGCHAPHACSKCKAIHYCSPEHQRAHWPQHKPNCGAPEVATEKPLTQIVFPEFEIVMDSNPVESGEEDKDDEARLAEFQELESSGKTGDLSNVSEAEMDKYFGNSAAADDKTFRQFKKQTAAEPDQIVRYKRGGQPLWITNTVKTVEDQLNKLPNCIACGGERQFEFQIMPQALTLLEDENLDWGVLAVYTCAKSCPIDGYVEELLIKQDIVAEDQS
Assay: TAP affinity purification with Western blot; one-step purification of TAP-Zfrp8 from Drosophila ovary extracts on Streptavidin Plus beads (IgG agarose and TEV steps skipped); blot with anti-Zfrp8 and anti-RpS2; w118 extract as negative control

For “RpS2 (endogenous, Drosophila ovaries) (from UniProt P31009 1-267)”, the binding was “binds”.
